# The list shows a part of the results.
# B1: EUL D1A second (Oryza sativa) (protein)
# chain: GAATACTIGGVPVHTVRVFSAAGEDYCLTVRNGTACLAPKNPRDDYQHWIKDMRHSNKIRDEEGYPAFALVNKVTGEAIKHSTGQGHPVKLVPYNPEYQDESVLWTESKDVGKGFRCIRMVNNIYLNFDAFHGDKDHGGIHDGTEIVLWKWCEGDNQRWKILPWILEQKLISEEDLNSAVDHHHHHH
# Key:
# Assay in all cases: glycan array binding signal (z-score within array); higher = stronger binding
# Settings in all cases: glycan notation: IUPAC condensed, linker removed
# [1] = biological target: Fuc(a1-2)Gal
# Summary of the method: (§1)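 Glycan array binding is given as a within-array Z-score, which can be read as non-binding when negative. The arrays, 3228 of them, came from the Consortium for Functional Glycomics database and were retained only where the protein sequence was available. Z-scores were averaged across arrays of the same protein sequence at different concentrations or buffers and across linkers.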
# [2] = biological target: Fuc(a1-2)Gal(b1-3)GalNAc
# Summary of the method: as §1
# [3] = biological target: Fuc(a1-2)Gal(b1-3)GalNAc(a1-3)[Fuc(a1-2)]Gal(b1-4)Glc
# Summary of the method: as §1
# [4] = biological target: Fuc(a1-2)Gal(b1-3)GalNAc(a1-3)[Fuc(a1-2)]Gal(b1-4)GlcNAc
# Summary of the method: as §1
# [5] = biological target: Fuc(a1-2)Gal(b1-3)GalNAc(b1-3)Gal
# Summary of the method: as §1
# [6] = biological target: Fuc(a1-2)Gal(b1-3)GalNAc(b1-3)Gal(a1-4)Gal(b1-4)Glc
# Summary of the method: as §1
# [7] = biological target: Fuc(a1-2)Gal(b1-3)GalNAc(b1-4)[Neu5Ac(a2-3)]Gal(b1-4)Glc
# Summary of the method: as §1
# [8] = biological target: Fuc(a1-2)Gal(b1-3)GlcNAc
# Summary of the method: as §1
# [9] = biological target: Fuc(a1-2)Gal(b1-3)GlcNAc(b1-2)Man(a1-3)[Fuc(a1-2)Gal(b1-3)GlcNAc(b1-2)Man(a1-6)]Man(b1-4)GlcNAc(b1-4)GlcNAc
# Summary of the method: as §1
# [10] = biological target: Fuc(a1-2)Gal(b1-3)GlcNAc(b1-2)Man(a1-3)[Fuc(a1-2)Gal(b1-3)GlcNAc(b1-2)Man(a1-6)]Man(b1-4)GlcNAc(b1-4)[Fuc(a1-6)]GlcNAc
# Summary of the method: as §1
# [11] = biological target: Fuc(a1-2)Gal(b1-3)GlcNAc(b1-3)Gal(b1-4)Glc
# Summary of the method: as §1
# [12] = biological target: Fuc(a1-2)Gal(b1-3)GlcNAc(b1-3)GalNAc
# Summary of the method: as §1
# [13] = biological target: Fuc(a1-2)Gal(b1-3)GlcNAc(b1-3)[Fuc(a1-2)Gal(b1-3)GlcNAc(b1-6)]GalNAc
# Summary of the method: as §1
# [14] = biological target: Fuc(a1-2)Gal(b1-3)GlcNAc(b1-3)[Gal(b1-4)GlcNAc(b1-6)]Gal(b1-4)Glc
# Summary of the method: as §1
# [15] = biological target: Fuc(a1-2)Gal(b1-3)GlcNAc(b1-3)[Neu5Ac(a2-6)Gal(b1-4)GlcNAc(b1-6)]Gal(b1-4)Glc
# Summary of the method: as §1
# [16] = biological target: Fuc(a1-2)Gal(b1-3)GlcNAc6S
# Summary of the method: as §1
# [17] = biological target: Fuc(a1-2)Gal(b1-3)[Fuc(a1-4)]GlcNAc
# Summary of the method: as §1
# [18] = biological target: Fuc(a1-2)Gal(b1-3)[Fuc(a1-4)]GlcNAc(b1-2)Man(a1-3)[Fuc(a1-2)Gal(b1-3)[Fuc(a1-4)]GlcNAc(b1-2)Man(a1-3)]Man(b1-4)GlcNAc(b1-4)GlcNAc
# Summary of the method: as §1
# [19] = biological target: Fuc(a1-2)Gal(b1-3)[Fuc(a1-4)]GlcNAc(b1-2)Man(a1-3)[Fuc(a1-2)Gal(b1-3)[Fuc(a1-4)]GlcNAc(b1-2)Man(a1-6)]Man(b1-4)GlcNAc(b1-4)[Fuc(a1-6)]GlcNAc(b1-4)[Fuc(a1-6)]GlcNAc
# Summary of the method: as §1
# [20] = biological target: Fuc(a1-2)Gal(b1-3)[Fuc(a1-4)]GlcNAc(b1-3)[Fuc(a1-3)[Gal(b1-4)]GlcNAc(b1-6)]Gal(b1-4)Glc
# Summary of the method: as §1
# [21] = biological target: Fuc(a1-2)Gal(b1-3)[Fuc(a1-4)]GlcNAc(b1-3)[Gal(b1-4)GlcNAc(b1-6)]Gal(b1-4)Glc
# Summary of the method: as §1
# [22] = biological target: Fuc(a1-2)Gal(b1-4)Glc
# Summary of the method: as §1
# [23] = biological target: Fuc(a1-2)Gal(b1-4)Glc6S
# Summary of the method: as §1
# [24] = biological target: Fuc(a1-2)Gal(b1-4)GlcNAc
# Summary of the method: as §1
# [25] = biological target: Fuc(a1-2)Gal(b1-4)GlcNAc(b1-2)Man
# Summary of the method: as §1
# [26] = biological target: Fuc(a1-2)Gal(b1-4)GlcNAc(b1-2)Man(a1-3)[Fuc(a1-2)Gal(b1-4)GlcNAc(b1-2)Man(a1-6)]Man(b1-4)GlcNAc(b1-4)GlcNAc
# Summary of the method: as §1
# [27] = biological target: Fuc(a1-2)Gal(b1-4)GlcNAc(b1-2)Man(a1-3)[Fuc(a1-2)Gal(b1-4)GlcNAc(b1-2)Man(a1-6)]Man(b1-4)GlcNAc(b1-4)[Fuc(a1-6)]GlcNAc
# Summary of the method: as §1
# [28] = biological target: Fuc(a1-2)Gal(b1-4)GlcNAc(b1-2)[Fuc(a1-2)Gal(b1-4)GlcNAc(b1-4)]Man(a1-3)[Fuc(a1-2)Gal(b1-4)GlcNAc(b1-2)Man(a1-6)]Man(b1-4)GlcNAc(b1-4)GlcNAc
# Summary of the method: as §1
# [29] = biological target: Fuc(a1-2)Gal(b1-4)GlcNAc(b1-3)Gal(b1-4)GlcNAc
# Summary of the method: as §1
# [30] = biological target: Fuc(a1-2)Gal(b1-4)GlcNAc(b1-3)Gal(b1-4)GlcNAc(b1-2)Man(a1-3)[Fuc(a1-2)Gal(b1-4)GlcNAc(b1-3)Gal(b1-4)GlcNAc(b1-2)Man(a1-6)]Man(b1-4)GlcNAc(b1-4)GlcNAc
# Summary of the method: as §1
# [31] = biological target: Fuc(a1-2)Gal(b1-4)GlcNAc(b1-3)Gal(b1-4)GlcNAc(b1-3)Gal(b1-4)GlcNAc
# Summary of the method: as §1
# [32] = biological target: Fuc(a1-2)Gal(b1-4)GlcNAc(b1-3)GalNAc
# Summary of the method: as §1
# [33] = biological target: Fuc(a1-2)Gal(b1-4)GlcNAc(b1-3)[Fuc(a1-2)Gal(b1-4)GlcNAc(b1-6)]GalNAc
# Summary of the method: as §1
# [34] = biological target: Fuc(a1-2)Gal(b1-4)GlcNAc(b1-3)[Fuc(a1-3)[Gal(b1-4)]GlcNAc(b1-6)]Gal(b1-4)Glc
# Summary of the method: as §1
# [35] = biological target: Fuc(a1-2)Gal(b1-4)GlcNAc(b1-6)GalNAc
# Summary of the method: as §1
# [36] = biological target: Fuc(a1-2)Gal(b1-4)GlcNAc6S
# Summary of the method: as §1
# [37] = biological target: Fuc(a1-2)Gal(b1-4)[Fuc(a1-3)]GlcNAc
# Summary of the method: as §1
# [38] = biological target: Fuc(a1-2)Gal(b1-4)[Fuc(a1-3)]GlcNAc(b1-2)Man(a1-3)[Fuc(a1-2)Gal(b1-4)[Fuc(a1-3)]GlcNAc(b1-2)Man(a1-6)]Man(b1-4)GlcNAc(b1-4)[Fuc(a1-6)]GlcNAc
# Summary of the method: as §1
# [39] = biological target: Fuc(a1-2)Gal(b1-4)[Fuc(a1-3)]GlcNAc(b1-2)[Fuc(a1-2)Gal(b1-4)[Fuc(a1-3)]GlcNAc(b1-4)]Man(a1-3)[Fuc(a1-2)Gal(b1-4)[Fuc(a1-3)]GlcNAc(b1-2)Man(a1-6)]Man(b1-4)GlcNAc(b1-4)GlcNAc
# Summary of the method: as §1
# [40] = biological target: Fuc(a1-2)Gal(b1-4)[Fuc(a1-3)]GlcNAc(b1-3)Gal(b1-4)[Fuc(a1-3)]GlcNAc
# Summary of the method: as §1
# [41] = biological target: Fuc(a1-2)Gal(b1-4)[Fuc(a1-3)]GlcNAc(b1-3)Gal(b1-4)[Fuc(a1-3)]GlcNAc(b1-3)Gal(b1-4)[Fuc(a1-3)]GlcNAc
# Summary of the method: as §1
# [42] = biological target: Fuc(a1-2)Gal(b1-4)[Fuc(a1-3)]GlcNAc(b1-3)GalNAc
# Summary of the method: as §1
# [43] = biological target: Fuc(a1-2)Gal(b1-4)[Fuc(a1-3)]GlcNAc(b1-3)[Neu5Ac(a2-6)Gal(b1-4)GlcNAc(b1-6)]Gal(b1-4)Glc
# Summary of the method: as §1
# [44] = biological target: Fuc(a1-2)Gal3S(b1-4)GlcNAc
# Summary of the method: as §1
# [45] = biological target: Fuc(a1-2)Gal6S(b1-3)GlcNAc
# Summary of the method: as §1
binder,measurement,setting,value
B1,glycan array binding signal (z-score),[1],0.91
same,glycan array binding signal (z-score),[2],-0.65
same,glycan array binding signal (z-score),[3],0.097
same,glycan array binding signal (z-score),[4],-0.086
same,glycan array binding signal (z-score),[5],0.641
same,glycan array binding signal (z-score),[6],-0.076
same,glycan array binding signal (z-score),[7],-0.8
same,glycan array binding signal (z-score),[8],0.226
same,glycan array binding signal (z-score),[9],0.302
same,glycan array binding signal (z-score),[10],-1.13
same,glycan array binding signal (z-score),[11],-1.01
same,glycan array binding signal (z-score),[12],-0.565
same,glycan array binding signal (z-score),[13],0.473
same,glycan array binding signal (z-score),[14],0.123
same,glycan array binding signal (z-score),[15],-0.13
same,glycan array binding signal (z-score),[16],0.142
same,glycan array binding signal (z-score),[17],-0.16
same,glycan array binding signal (z-score),[18],-0.938
same,glycan array binding signal (z-score),[19],0.045
same,glycan array binding signal (z-score),[20],-1.51
same,glycan array binding signal (z-score),[21],1.09
same,glycan array binding signal (z-score),[22],-0.477
same,glycan array binding signal (z-score),[23],1.58
same,glycan array binding signal (z-score),[24],0.021
same,glycan array binding signal (z-score),[25],-0.464
same,glycan array binding signal (z-score),[26],0.721
same,glycan array binding signal (z-score),[27],-1.11
same,glycan array binding signal (z-score),[28],-0.771
same,glycan array binding signal (z-score),[29],-1.23
same,glycan array binding signal (z-score),[30],0.828
same,glycan array binding signal (z-score),[31],0.558
same,glycan array binding signal (z-score),[32],-0.516
same,glycan array binding signal (z-score),[33],-1.55
same,glycan array binding signal (z-score),[34],0.354
same,glycan array binding signal (z-score),[35],0.581
same,glycan array binding signal (z-score),[36],-0.596
same,glycan array binding signal (z-score),[37],-0.571
same,glycan array binding signal (z-score),[38],-0.719
same,glycan array binding signal (z-score),[39],-0.79
same,glycan array binding signal (z-score),[40],0.548
same,glycan array binding signal (z-score),[41],0.487
same,glycan array binding signal (z-score),[42],1.21
same,glycan array binding signal (z-score),[43],0.625
same,glycan array binding signal (z-score),[44],0.228
same,glycan array binding signal (z-score),[45],-1.71

# Random excerpt: 3 entries already listed, in no set order.
binder,measurement,setting,value
B1,glycan array binding signal (z-score),[31],0.558
same,glycan array binding signal (z-score),[19],0.045
same,glycan array binding signal (z-score),[14],0.123

# From the supplement of paper PMC8728848
